The values below come from paper PMC11758948.

Amino acid sequences for entries named in this document (tags omitted).
UniProt P84095: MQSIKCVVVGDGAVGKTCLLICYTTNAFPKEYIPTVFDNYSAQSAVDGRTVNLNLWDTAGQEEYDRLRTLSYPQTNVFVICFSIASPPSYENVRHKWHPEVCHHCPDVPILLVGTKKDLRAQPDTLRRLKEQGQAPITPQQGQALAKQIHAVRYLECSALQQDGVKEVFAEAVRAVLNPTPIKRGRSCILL

No constants are given. Whether binding was seen depends on the method and setting. In cells and extracts the contact can be indirect. Some entries that bind do so weakly or less than the wild type. Sequences can lack the tags named with a protein.

The target of this assay is T1, GST-ELMO2, RhoG-binding domain-included N-terminal region (aa 1-362) of ELMO2 fused with glutathione S-transferase (UniProt Q96JJ3).
T1 sequence: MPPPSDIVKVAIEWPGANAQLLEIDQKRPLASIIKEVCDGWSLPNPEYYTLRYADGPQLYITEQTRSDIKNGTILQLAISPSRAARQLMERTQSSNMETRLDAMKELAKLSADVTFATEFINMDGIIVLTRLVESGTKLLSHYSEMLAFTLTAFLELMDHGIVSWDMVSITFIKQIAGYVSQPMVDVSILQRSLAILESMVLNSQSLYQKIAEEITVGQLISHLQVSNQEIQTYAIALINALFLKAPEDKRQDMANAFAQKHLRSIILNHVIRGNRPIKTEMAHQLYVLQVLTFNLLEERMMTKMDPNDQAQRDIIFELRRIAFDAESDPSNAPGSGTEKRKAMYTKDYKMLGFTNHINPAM
The assay is described as follows: pull-down; GST-ELMO2 (aa 1-362) on glutathione sepharose 4B beads incubated with supernatants of HeLa S3/WT, /S41A and /S41E cell lysates (Dox 48 h) at 4 °C for 1 h; 50 mM Hepes-NaOH pH 7.4, Triton X-100, 300 mM NaCl, MgCl2, 1 mM DTT; beads washed 4 times; bound proteins by Western blot; only the target purified. In general terms: A western blot detects proteins with antibodies after separation by electrophoresis.

Regarding RhoG (from UniProt P84095 1-191), the binding result is “binds”.
